{
  "source": "the supplement of paper PMC8728848",
  "binders": {"B1": {"name": "OS9 (Arabidopsis thaliana) (protein)", "chain": "MRGSHHHHHHGMASMTGGQQMGRDLYDDDDKSRLQIFPAHLVGTFSRNNREPKYKIEFLPEDSPFHPGDNLESMVMLDKHGNRFLCYLPKEEKATSGWTSSQQNISTVMMETQQLVKLKTPDELLQPLSEKCLFRQEGWWSYEFCHQKYVRQLHVEDENKIVQEFFLGTFDPEATAAFNQTVSDASTDASQRYHSHVYTNGTTCDLTGSPREVEVRFVCAETRAMVTSITELSTCKYALTVQCPTLCKHPLFQLEKPVSHTIHCNAIPVEEDATRNKEEQAVDESPKMIADS"}},
  "experiment_in_all_cases": "glycan array binding signal (z-score within array); higher = stronger binding",
  "settings_in_all_cases": "glycan notation: IUPAC condensed, linker removed",
  "key": {"Gal6S(b1-4)Glc6S": {"biological_target": "Gal6S(b1-4)Glc6S", "outline": "(§1)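 Glycan array binding is given as a within-array Z-score, which can be read as non-binding when negative. The arrays, 3228 of them, came from the Consortium for Functional Glycomics database and were retained only where the protein sequence was available. Z-scores were averaged across arrays of the same protein sequence at different concentrations or buffers and across linkers.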"}, "Gal6S(b1-4)GlcNAc": {"biological_target": "Gal6S(b1-4)GlcNAc", "outline": "as §1"}, "Gal6S(b1-4)GlcNAc6S": {"biological_target": "Gal6S(b1-4)GlcNAc6S", "outline": "as §1"}, "GalNAc(a1-3)Gal": {"biological_target": "GalNAc(a1-3)Gal", "outline": "as §1"}, "GalNAc(a1-3)GalNAc": {"biological_target": "GalNAc(a1-3)GalNAc", "outline": "as §1"}, "[1]": {"biological_target": "GalNAc(a1-3)GalNAc(b1-3)Gal(a1-4)Gal(b1-4)Glc", "outline": "as §1"}, "[2]": {"biological_target": "GalNAc(a1-3)GalNAc(b1-3)Gal(a1-4)Gal(b1-4)GlcNAc", "outline": "as §1"}, "GalNAc(b1-3)Gal": {"biological_target": "GalNAc(b1-3)Gal", "outline": "as §1"}, "[3]": {"biological_target": "GalNAc(b1-3)Gal(a1-4)Gal(b1-4)GlcNAc", "outline": "as §1"}, "[4]": {"biological_target": "GalNAc(b1-3)Gal(a1-4)Gal(b1-4)GlcNAc(b1-3)Gal(b1-4)Glc", "outline": "as §1"}, "[5]": {"biological_target": "GalNAc(b1-3)Gal(a1-6)Gal(b1-4)Glc", "outline": "as §1"}, "GalNAc(b1-3)GalNAc": {"biological_target": "GalNAc(b1-3)GalNAc", "outline": "as §1"}, "GalNAc(b1-3)GlcNAc": {"biological_target": "GalNAc(b1-3)GlcNAc", "outline": "as §1"}, "GalNAc(b1-4)Gal(b1-4)Glc": {"biological_target": "GalNAc(b1-4)Gal(b1-4)Glc", "outline": "as §1"}, "GalNAc(b1-4)GlcNAc": {"biological_target": "GalNAc(b1-4)GlcNAc", "outline": "as §1"}, "[6]": {"biological_target": "GalNAc(b1-4)GlcNAc(b1-2)Man", "outline": "as §1"}, "[7]": {"biological_target": "GalNAc(b1-4)GlcNAc(b1-2)Man(a1-3)[GalNAc(b1-4)GlcNAc(b1-2)Man(a1-6)]Man(b1-4)GlcNAc(b1-4)GlcNAc", "outline": "as §1"}, "[8]": {"biological_target": "GalNAc(b1-4)GlcNAc(b1-3)GalNAc(b1-4)GlcNAc", "outline": "as §1"}, "GalNAc(b1-4)GlcNAc6S": {"biological_target": "GalNAc(b1-4)GlcNAc6S", "outline": "as §1"}, "GalNAc(b1-6)GalNAc": {"biological_target": "GalNAc(b1-6)GalNAc", "outline": "as §1"}, "GalNAc3S(b1-4)GlcNAc": {"biological_target": "GalNAc3S(b1-4)GlcNAc", "outline": "as §1"}, "GalNAc3S(b1-4)GlcNAc3S": {"biological_target": "GalNAc3S(b1-4)GlcNAc3S", "outline": "as §1"}, "[9]": {"biological_target": "GalNAc3S(b1-4)[Fuc(a1-3)]GlcNAc", "outline": "as §1"}, "GalNAc4S6S(b1-4)GlcNAc": {"biological_target": "GalNAc4S6S(b1-4)GlcNAc", "outline": "as §1"}, "GalNAc6S(b1-4)GlcNAc": {"biological_target": "GalNAc6S(b1-4)GlcNAc", "outline": "as §1"}, "Glc(a1-4)Glc": {"biological_target": "Glc(a1-4)Glc", "outline": "as §1"}, "[10]": {"biological_target": "Glc(a1-4)Glc(a1-4)Glc(a1-4)Glc", "outline": "as §1"}, "Glc(a1-6)Glc(a1-6)Glc": {"biological_target": "Glc(a1-6)Glc(a1-6)Glc", "outline": "as §1"}, "[11]": {"biological_target": "Glc(a1-6)Glc(a1-6)Glc(a1-6)Glc", "outline": "as §1"}, "Glc(b1-4)Glc": {"biological_target": "Glc(b1-4)Glc", "outline": "as §1"}, "Glc(b1-6)Glc": {"biological_target": "Glc(b1-6)Glc", "outline": "as §1"}, "GlcA(b1-3)Gal": {"biological_target": "GlcA(b1-3)Gal", "outline": "as §1"}, "GlcA(b1-3)GlcNAc": {"biological_target": "GlcA(b1-3)GlcNAc", "outline": "as §1"}, "GlcA(b1-6)Gal": {"biological_target": "GlcA(b1-6)Gal", "outline": "as §1"}, "[12]": {"biological_target": "GlcA3S(b1-3)Gal(b1-4)GlcNAc(b1-2)Man", "outline": "as §1"}, "[13]": {"biological_target": "GlcA3S(b1-3)Gal(b1-4)GlcNAc(b1-3)Gal(b1-4)Glc", "outline": "as §1"}, "[14]": {"biological_target": "GlcNAc(a1-3)Gal(b1-4)GlcNAc", "outline": "as §1"}},
  "note": "This is one part of the list.",
  "data": [
    {"binder": "B1", "values": [
      {"measurement": "glycan array binding signal (z-score)", "setting": "Gal6S(b1-4)Glc6S", "result": -0.724},
      {"measurement": "glycan array binding signal (z-score)", "setting": "Gal6S(b1-4)GlcNAc", "result": -0.895},
      {"measurement": "glycan array binding signal (z-score)", "setting": "Gal6S(b1-4)GlcNAc6S", "result": -0.428},
      {"measurement": "glycan array binding signal (z-score)", "setting": "GalNAc(a1-3)Gal", "result": -0.979},
      {"measurement": "glycan array binding signal (z-score)", "setting": "GalNAc(a1-3)GalNAc", "result": -0.783},
      {"measurement": "glycan array binding signal (z-score)", "setting": "[1]", "result": -1.01},
      {"measurement": "glycan array binding signal (z-score)", "setting": "[2]", "result": -0.458},
      {"measurement": "glycan array binding signal (z-score)", "setting": "GalNAc(b1-3)Gal", "result": 1.46},
      {"measurement": "glycan array binding signal (z-score)", "setting": "[3]", "result": 0.917},
      {"measurement": "glycan array binding signal (z-score)", "setting": "[4]", "result": 0.833},
      {"measurement": "glycan array binding signal (z-score)", "setting": "[5]", "result": 0.013},
      {"measurement": "glycan array binding signal (z-score)", "setting": "GalNAc(b1-3)GalNAc", "result": 0.839},
      {"measurement": "glycan array binding signal (z-score)", "setting": "GalNAc(b1-3)GlcNAc", "result": 0.076},
      {"measurement": "glycan array binding signal (z-score)", "setting": "GalNAc(b1-4)Gal(b1-4)Glc", "result": 2.57},
      {"measurement": "glycan array binding signal (z-score)", "setting": "GalNAc(b1-4)GlcNAc", "result": 0.268},
      {"measurement": "glycan array binding signal (z-score)", "setting": "[6]", "result": 3.58},
      {"measurement": "glycan array binding signal (z-score)", "setting": "[7]", "result": -0.023},
      {"measurement": "glycan array binding signal (z-score)", "setting": "[8]", "result": 1.14},
      {"measurement": "glycan array binding signal (z-score)", "setting": "GalNAc(b1-4)GlcNAc6S", "result": 0.489},
      {"measurement": "glycan array binding signal (z-score)", "setting": "GalNAc(b1-6)GalNAc", "result": 1.2},
      {"measurement": "glycan array binding signal (z-score)", "setting": "GalNAc3S(b1-4)GlcNAc", "result": 2.22},
      {"measurement": "glycan array binding signal (z-score)", "setting": "GalNAc3S(b1-4)GlcNAc3S", "result": -0.058},
      {"measurement": "glycan array binding signal (z-score)", "setting": "[9]", "result": -0.073},
      {"measurement": "glycan array binding signal (z-score)", "setting": "GalNAc4S6S(b1-4)GlcNAc", "result": -0.344},
      {"measurement": "glycan array binding signal (z-score)", "setting": "GalNAc6S(b1-4)GlcNAc", "result": -0.314},
      {"measurement": "glycan array binding signal (z-score)", "setting": "Glc(a1-4)Glc", "result": 1.98},
      {"measurement": "glycan array binding signal (z-score)", "setting": "[10]", "result": 1.34},
      {"measurement": "glycan array binding signal (z-score)", "setting": "Glc(a1-6)Glc(a1-6)Glc", "result": -0.542},
      {"measurement": "glycan array binding signal (z-score)", "setting": "[11]", "result": 0.454},
      {"measurement": "glycan array binding signal (z-score)", "setting": "Glc(b1-4)Glc", "result": -0.522},
      {"measurement": "glycan array binding signal (z-score)", "setting": "Glc(b1-6)Glc", "result": 0.2},
      {"measurement": "glycan array binding signal (z-score)", "setting": "GlcA(b1-3)Gal", "result": 0.001},
      {"measurement": "glycan array binding signal (z-score)", "setting": "GlcA(b1-3)GlcNAc", "result": -0.142},
      {"measurement": "glycan array binding signal (z-score)", "setting": "GlcA(b1-6)Gal", "result": -0.646},
      {"measurement": "glycan array binding signal (z-score)", "setting": "[12]", "result": 2.29},
      {"measurement": "glycan array binding signal (z-score)", "setting": "[13]", "result": -0.647},
      {"measurement": "glycan array binding signal (z-score)", "setting": "[14]", "result": 0.737}
    ]}
  ]
}
